This list was built around the results that the source calls inconclusive (neither active nor inactive); the mix of calls is not that of the screen. For some of these results: A potency beside an inconclusive call is a rough fit, not a confirmed value. Activity calls are given as the source filed them. The calls were made as follows: active = hit-call score of the fitted dose curve at least 0.9, where 1 is the maximum; inconclusive = response in the unintended direction; inactive = score below 0.9.
What was measured:
[1] = target: Luciferin 4-monooxygenase (Photinus pyralis) (UniProt P08659); assay: CCTE_Simmons_QuantiLum_inhib_2: CCTE's Firefly Luciferase Inhibition Assay, Simmons Lab (AID 2283767)
In short: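 Eight test concentrations, 5 nM up to 87.5 uM final, preincubated 30min at 37C in the dark with purified luciferase (0.5% DMSO final). Detection reagent (150uM D-luciferin, 147uM dATP, 75uM CoA, pH 7.8) injected per well before kinetic luminescence read; three replicates.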

The chains behind the UniProt entries cited, without tags or fusion partners. Where a name states a change or a piece, a line headed by the entry shows the natural chain unless it says otherwise.
UniProt P08659, whole entry, looked up: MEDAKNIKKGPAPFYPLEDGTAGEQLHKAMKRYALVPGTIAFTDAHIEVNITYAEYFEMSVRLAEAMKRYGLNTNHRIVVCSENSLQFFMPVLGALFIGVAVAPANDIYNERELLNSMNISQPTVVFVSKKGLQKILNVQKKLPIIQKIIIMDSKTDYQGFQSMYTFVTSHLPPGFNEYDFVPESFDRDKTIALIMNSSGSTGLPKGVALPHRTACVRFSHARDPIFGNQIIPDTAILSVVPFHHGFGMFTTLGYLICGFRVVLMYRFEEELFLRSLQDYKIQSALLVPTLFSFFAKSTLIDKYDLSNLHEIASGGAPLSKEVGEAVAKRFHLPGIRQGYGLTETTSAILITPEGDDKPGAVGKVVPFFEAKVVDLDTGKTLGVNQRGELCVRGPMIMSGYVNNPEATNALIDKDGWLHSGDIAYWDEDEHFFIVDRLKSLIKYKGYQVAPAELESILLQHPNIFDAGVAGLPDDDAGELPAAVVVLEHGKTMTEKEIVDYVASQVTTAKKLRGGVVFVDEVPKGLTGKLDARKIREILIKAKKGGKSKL
UniProt Q9PVE4: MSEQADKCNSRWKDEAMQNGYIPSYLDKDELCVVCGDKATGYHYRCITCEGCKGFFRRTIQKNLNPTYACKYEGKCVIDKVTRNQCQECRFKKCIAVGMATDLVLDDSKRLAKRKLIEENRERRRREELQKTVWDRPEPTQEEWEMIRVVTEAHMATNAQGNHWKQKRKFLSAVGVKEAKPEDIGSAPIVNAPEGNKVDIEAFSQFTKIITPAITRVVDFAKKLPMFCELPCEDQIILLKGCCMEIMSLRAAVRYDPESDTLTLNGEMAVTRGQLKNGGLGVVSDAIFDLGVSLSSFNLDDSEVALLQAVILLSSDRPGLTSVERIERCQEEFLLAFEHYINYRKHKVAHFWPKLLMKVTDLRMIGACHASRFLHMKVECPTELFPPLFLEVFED
UniProt Q12809: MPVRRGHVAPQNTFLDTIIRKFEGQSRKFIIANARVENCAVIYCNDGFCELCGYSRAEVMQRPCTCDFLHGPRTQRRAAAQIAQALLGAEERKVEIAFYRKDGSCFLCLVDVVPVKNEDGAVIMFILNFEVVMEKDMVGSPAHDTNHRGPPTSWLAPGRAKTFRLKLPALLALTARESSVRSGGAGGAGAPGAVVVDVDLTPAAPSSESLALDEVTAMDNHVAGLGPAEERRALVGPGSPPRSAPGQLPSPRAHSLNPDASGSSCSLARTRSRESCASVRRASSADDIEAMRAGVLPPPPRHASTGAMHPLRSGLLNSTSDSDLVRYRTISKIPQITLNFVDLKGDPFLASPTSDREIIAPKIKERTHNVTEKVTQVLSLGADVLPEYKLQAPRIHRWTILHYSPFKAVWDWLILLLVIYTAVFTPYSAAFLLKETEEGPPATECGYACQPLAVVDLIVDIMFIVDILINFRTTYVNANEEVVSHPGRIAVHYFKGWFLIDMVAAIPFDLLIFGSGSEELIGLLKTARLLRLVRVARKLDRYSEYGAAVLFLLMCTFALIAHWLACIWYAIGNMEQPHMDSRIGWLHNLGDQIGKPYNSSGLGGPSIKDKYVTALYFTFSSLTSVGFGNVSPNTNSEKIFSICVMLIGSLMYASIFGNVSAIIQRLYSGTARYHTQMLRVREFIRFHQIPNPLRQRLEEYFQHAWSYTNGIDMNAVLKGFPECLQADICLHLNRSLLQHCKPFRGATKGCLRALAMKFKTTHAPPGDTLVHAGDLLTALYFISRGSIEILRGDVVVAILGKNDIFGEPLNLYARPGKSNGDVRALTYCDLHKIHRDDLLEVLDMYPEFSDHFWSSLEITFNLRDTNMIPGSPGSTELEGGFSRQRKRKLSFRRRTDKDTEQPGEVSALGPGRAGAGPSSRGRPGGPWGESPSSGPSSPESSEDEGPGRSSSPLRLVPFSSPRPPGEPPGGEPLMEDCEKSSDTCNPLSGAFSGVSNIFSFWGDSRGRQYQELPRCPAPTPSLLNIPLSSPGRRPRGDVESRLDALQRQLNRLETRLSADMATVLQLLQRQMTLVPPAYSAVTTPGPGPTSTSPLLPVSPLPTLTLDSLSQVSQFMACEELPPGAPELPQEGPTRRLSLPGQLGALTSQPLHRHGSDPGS

[2] = target: zebrafish Thyroid Hormone Receptor beta (TRb), thrb (gene 30607) (UniProt Q9PVE4); assay: ATG_zfTRb_XSP1: Attagene TRANS-FACTORIAL Multi-Species (XSP1) HepG2 Assay for zebrafish Thyroid Hormone Receptor beta (TRb) (AID 2283809)
In short: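 HepG2 cells transiently transfected with multiplexed GAL4-UAS reporter units expressing chimeric zebrafish TRb–Gal4. Dosed 24 h with 3 nM 6-alpha-fluorotestosterone present; reporter mRNA measured by RT-PCR, HpaI digestion and capillary electrophoresis; gain of signal versus DMSO.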

[3] = NVS_IC_rCaDHPRCh_L: NovaScreen (NVS) Ion Channel Assay for rat Calcium Channel, Type L, Dihydropyridine Site (CaDHPRCh_L) (AID 2283320)
In short: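 Rat cortex membrane preparation; dihydropyridine-site radioligand displacement read 1 h post-dose by filtration and scintillation. Primary single-point screen 25 uM in duplicate, then concentration series to 50 uM maximum; DMSO as negative control.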

[4] = target: Voltage-gated inwardly rectifying potassium channel KCNH2 (Homo sapiens) (UniProt Q12809); assay: NVS_IC_hKhERGCh: NovaScreen (NVS) Ion Channel Assay for human Potassium Channel ERG (KhERGCh) (AID 2283333)
In short: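 Membranes from CHO cells expressing human ERG; displacement of radioligand measured by filtration and scintillation after 0.75 h. Single-concentration duplicate screen at 25 uM, then concentration-response for actives; DMSO baseline.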

[5] = ArunA_CellTiter_hNP: Viability Assessment in the ArunA Biomedical's Oris Neural Crest (hNC) Cell Migration Assay (AID 2283753)
In short: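 Viability read with CellTiter 96 Aqueous One after 72 h chemical exposure of human hNP1 neuroprogenitors, which were plated on Matrigel in LIF/bFGF medium 16 h beforehand. Endpoint fitted in positive direction relative to DMSO.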

[6] = ArunA_NOG_NucleusCount: ArunA Biomedical's Neurite Outgrowth (NOG) Assay for Nucleus Count (AID 2283756)
In short: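 Viable neuron count, from Hoechst nuclei passing size and intensity gates, imaged at 20x on differentiated H9-derived human neurons. Exposure lasted 48 h from seeding; activity was scored relative to DMSO.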

[7] = ArunA_NOG_NeuriteLength: ArunA Biomedical's Neurite Outgrowth (NOG) Assay for Neurite Length (AID 2283757)
In short: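 Total neurite length per neuron, from traced βIII-tubulin-labelled processes longer than 10 um on viable Hoechst-gated cells, was scored as decrease from DMSO. Cells were hESC (H9)-derived neurons given 48 h chemical exposure immediately after seeding.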

[8] = system: Sodium/Iodide Symporter (NIS), SLC5A5 (gene 6528); assay: CPHEA_Stoker_NIS_Inhibition_RAIU: CPHEA's Radioactive Iodide Uptake (RAIU) Assay for Sodium/Iodide Symporter (NIS) Inhibition, Stoker and Laws Labs (AID 2283841)
In short: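 Test chemicals, six concentrations from 0.001 to 100uM in 0.5% DMSO, were co-incubated with carrier-free 125I (final 329pM) on hNIS-HEK293T-EPA monolayers in pH 7.4 HEPES-buffered HBSS. Plates stood 2 hours at room temperature, then were washed cold and counted.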

[9] = VALA_TUBHUV_Antagonist_TubuleLength: VALA Sciences human Umbilical Vein Endothelial Tubule Formation (TUBHUV) Antagonism Assay (AID 2284325)
In short: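 Tubule length was imaged via CD31 immunofluorescence after a further 3-day compound exposure in 10 ng/ml VEGF, following 3-day pre-culture of HUVEC with HDF at 1:3. Vehicle 0.1% DMSO; suramin (100 uM) inhibition control.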

[10] = IUF_NPC1_cytotoxicity_72hr: Cytotoxicity Assessment at 72 hours in the Leibniz Research Institute for Environmental Medicine (IUF) Neural Progenitor Cell Proliferation Assay (NPC1) (AID 2284332);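 also: rising LDH signal means more cytotoxicity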
In short: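 Cytotoxicity by LDH membrane-integrity assay on medium supernatants, fluorescence via resazurin reduction, after 3-day single exposure of primary hNPC spheres at 37C, pH 7.2-7.6 with growth factors. Fitted upward against baseline.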

Q: Which outcome [1] does the source give for `S=C([S-])NCCNC(=S)[S-].[Mn+2]` here?
A: Its outcome is “inactive”.

Q: For `C[C@]12CC[C@@H]3c4ccc(O)cc4CC[C@H]3[C@@H]1CCC2=O`, which outcome [2] is on record?
A: The outcome was “inactive”.

Q: With `O=C(CCCN1CCC(O)(c2ccc(Cl)cc2)CC1)c1ccc(F)cc1` as the compound, how does the AC50 [3] read?
A: The AC50 was active: 3.15 µM.

Q: What about the outcome [4] of the same compound?
A: The outcome was “inactive”.

Q: And the AC50 [5]?
A: Its AC50 is inconclusive: 3 µM.

Q: And the AC50 [6]?
A: The AC50 was active: 78.9 µM.

Q: What about the AC50 [7] of the same compound?
A: The AC50 was active: 78.1 µM.

Q: What about the AC50 [8] of the same compound?
A: The AC50 was inconclusive: 1.44 nM.

Q: What about the AC50 [9] of the same compound?
A: The AC50 was inconclusive: 98.3 nM.

Q: And the outcome [10]?
A: The outcome was “inactive”.

— PubChem BioAssay (EPA / NIEHS)
